Source: PubChem BioAssay AID504791 (Drosophila RNAi Screening Center, 2011)
The deposit covers about 23,000 reagents; this is an unselected part of those with a known target gene and a result. Of all reagents, 199 (0.86%) got an active call. 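Plate-scaled ratios behind the calls are not deposited; printed light signals are raw; many rows marked increased or decreased are still called inactive.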 Unmarked entries are inactive. Names joined by + are all predicted targets of the reagent. The record does not give: the direction of the score.

Aim: 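Factors in Argonaute-based small RNA production and activity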 (primary screen)
Cell system: Drosophila S2-derived reporter cells
Knock-down reagent: long dsRNA against Drosophila genes, about 150-250 ng dsRNA per well (siRNA assay); about 80-120 ng (miRNA assay)
Duration: about 5 days (siRNA assay); about 4 days (miRNA assay)
Challenge: copper sulfate induction of reporters: 25 µM (siRNA assay); 200 mM stated (miRNA assay), 1-2 days before reading
Detection: 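Per-well ratio of Renilla over firefly light, expressed relative to that plate's average ratio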
Hit rule: 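a well was a first-pass pick when its plate-scaled ratio rose above 1.5 (siRNA assay) or 1.6 (miRNA assay), or dropped below 0.6; a gene counted only if two separate dsRNAs agreed on retest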

The first 3 records as a preview:
target	amplicon	miRNA reporter change	stable assay Renilla, run 1 (luminescence)	stable assay firefly, run 1 (luminescence)
CG43102	DRSC14797		4388	4.12e5
CG43102	DRSC16239		7869	5.78e5
CG31729	DRSC02524		8645	1.10e6

Results, from the start:
target	amplicon	miRNA reporter change	stable assay Renilla, run 1 (luminescence)	stable assay firefly, run 1 (luminescence)
CG43102	DRSC14797		4388	4.12e5
CG43102	DRSC16239		7869	5.78e5
CG31729	DRSC02524		8645	1.10e6
CG31729	DRSC02946		7459	5.35e5
Hml	DRSC11183		7016	4.68e5
boi	DRSC18425		6320	3.54e5
boi	DRSC18598		7755	3.94e5
CG34426	DRSC09977		6870	4.51e5
CG11601	DRSC00318		7662	3.92e5
FER	DRSC12735		8050	5.83e5
FER	DRSC16673		6492	3.29e5
RpL10	DRSC11947		7521	4.33e5
CG7755	DRSC07040		6231	3.48e5
mldr	DRSC18100		5000	3.48e5
CG7379	DRSC16237		4276	4.51e5
CG14731	DRSC14952		7086	4.88e5
Acbp5	DRSC10548		5651	4.05e5
NELF-B	DRSC17734	reporter ratio lowered past the hit cutoff (active)	7939	5.69e5
CG6966	DRSC16156		7506	3.48e5
salm	DRSC03606		7278	4.05e5
CG16935	DRSC06638		5123	2.76e5
CG11041	DRSC06025		7422	4.31e5
jim	DRSC11889		9633	3.40e5
Hsf	DRSC07443		9106	3.26e5
AdoR	DRSC16556		8402	4.26e5
CG14232	DRSC19588		6788	4.92e5
CG6996	DRSC10758		6998	4.31e5
RyR	DRSC07543		6850	4.22e5
Ublcp1	DRSC14149		7307	3.04e5
ND-51L1	DRSC06072		5944	2.55e5
Tcs4	DRSC19587		7587	4.10e5
shv	DRSC00640		7098	4.54e5
shv	DRSC22122		8878	5.25e5
Nnf1a	DRSC06394		6115	5.05e5
Syp	DRSC13444		4687	5.04e5
Syp	DRSC15286		9064	4.20e5
CG1265	DRSC08288		6495	3.62e5
CG42662 + CG30080	DRSC05571		6399	4.65e5
CG7791	DRSC04891		10303	1.54e6
Vha16-1	DRSC05020		5931	3.71e5
CG5973	DRSC02918		1.82e5	1.40e5
Tm2	DRSC16887		6742	3.08e5
CG13063	DRSC09946		7238	4.42e5
CG16972	DRSC02550		9937	1.19e6
Zfrp8	DRSC04352		6158	3.00e5
SkpA	DRSC18833		6059	4.70e5
CG13083	DRSC02187		6235	3.22e5
CG32040	DRSC08981		4979	3.50e5
CG32040	DRSC22459		4120	3.68e5
CG15005	DRSC08459		6571	4.32e5
CG11865	DRSC01872		6078	3.71e5
Vap33	DRSC18384		8929	5.99e5
schuy	DRSC10284		7450	4.39e5
CG13252	DRSC11700		8737	3.68e5
AstCC	DRSC02404		6816	3.31e5
GABA-B-R3	DRSC00561		8075	5.00e5
Pvf2	DRSC00968		3339	3.54e5
Pvf2	DRSC02283		6792	4.02e5
